Some of the results follow. The main result of the screen is listed elsewhere. These columns were measured beside it and carry no call. Most of these compounds were active or inconclusive in the main read-out, so they are no random draw. Potencies come from curve fits of mixed quality, noted in brackets.
Assay: qHTS Assay for Lipid Storage Modulators in Drosophila S3 Cells;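 as to cell number change: cells counted by Cell Tracker Red CMTPX staining in the red channel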
Settings: BODIPY lipid droplet fluorescence, 18-24 h; for cell number change: measured here: cell count max response, cells fed with added oleic acid
In short: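 Drosophila S3 cells loaded with oleic acid (400 uM, as added) and compounds at several concentrations; lipid droplets imaged by 488-nm laser-scanning cytometry, 500–530 nm intensity and object ratio to cell channel. Percent activity normalized to 20 uM Triacsin C.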

[1] = measured here: lipid fluorescence (Fed channel) AC50, cells fed with added oleic acid
[2] = measured here: cell number channel AC50, cells fed with added oleic acid

CC(/C=N/NC(=O)c1nn(C)c(C)c1Br)=C\c1ccccc1
AC50 [1]: 3.26 µM [rising, partial curve, poor fit]

Cc1noc(C)c1CSc1nc2ccccc2nc1NS(=O)(=O)c1ccc(Cl)cc1
cell number change: -33.4%
AC50 [2]: 14.6 µM [falling, partial curve]
AC50 [1]: 29.1 µM [falling, single point]

O=C(COc1ccc(Br)cc1)Nc1ccncc1
cell number change: -41.3%
AC50 [2]: 23.1 µM [falling, single point]
AC50 [1]: 20.6 µM [falling, single point]

CCC(CC)N=C1NS(=O)(=O)c2cc([N+](=O)[O-])ccc21
cell number change: -12.7%
AC50 [1]: 29.1 µM [falling, single point]

CCCCn1c(/N=C/c2c[nH]c3ccccc23)nc2ccccc21
cell number change: -46%
AC50 [2]: 29.1 µM [falling, single point]
AC50 [1]: 29.1 µM [falling, single point]

Cc1ccc(C)c(NC(=O)CSc2nc3c(c(=O)n2C)SC(C)C3)c1 (stereo not given)
cell number change: 46.7%
AC50 [2]: 0.058 µM [rising, full curve, poor fit]
AC50 [1]: 0.0731 µM [rising, full curve, poor fit]

CCN(CC(=O)NCc1ccc(Cl)cc1)C(=O)c1cnc(Cl)c(Cl)c1
cell number change: 17.1%
AC50 [1]: 6.51 µM [rising, single point]

O=C(N/N=C/c1coc2ccccc2c1=O)c1cccc([N+](=O)[O-])c1
cell number change: -27.6%

C=C[C@@H]1c2ccccc2N(S(=O)(=O)c2ccc(C)cc2)[C@H](c2ccccc2C(F)(F)F)C1(C#N)C#N
cell number change: 11.6%
AC50 [1]: 6.51 µM [rising, single point]

Cc1ccoc1C(=O)Nc1cccc2ccccc12
AC50 [2]: 0.00517 µM [rising, full curve, poor fit]
AC50 [1]: 6.51 µM [rising, partial curve]

Cc1ccc(Nc2nnc(SCC(=O)Nc3cccc(S(=O)(=O)N4CCCCC4)c3)s2)cc1
cell number change: -5.78%
AC50 [1]: 23.1 µM [falling, single point]

COc1ccc(C(=O)Nc2sc3c(c2C(=O)O)CC(C)(C)OC3)cc1
cell number change: -22.5%
AC50 [1]: 29.1 µM [rising, partial curve]

COc1ccc(C(=S)N2CCCC2)cc1Br
cell number change: 16.1%
AC50 [1]: 29.1 µM [rising, single point]

CCOC(=O)N1CCC(NC(=O)C2CCCCN2S(=O)(=O)c2ccc(F)cc2)CC1 (stereo not given)
cell number change: 0.0065%
AC50 [1]: 3.26 µM [rising, single point]

Cc1cccc(NC(=O)c2cc3c(s2)-c2c(C)cccc2OC3)n1
cell number change: 61%
AC50 [2]: 6.51 µM [rising, partial curve]
AC50 [1]: 0.13 µM [rising, full curve, poor fit]

CC(C(=O)Nc1ccc(Cl)cc1)N(C)Cc1cccs1 (stereo not given)
cell number change: 14%
AC50 [1]: 2.91 µM [rising, single point]

CC(C)CC(NS(=O)(=O)c1ccc2[nH]c(=O)c(=O)[nH]c2c1)C(=O)O (stereo not given)
cell number change: 4.63%
AC50 [1]: 5.17 µM [falling, single point]

Cc1ccc(NC(=S)Nc2ccc3cn[nH]c3c2)c(C)c1
cell number change: 19.5%

CC(C)(C)c1ccc(NC(=O)NC2CCCc3ccccc32)cc1 (stereo not given)
cell number change: -37.4%
AC50 [2]: 4.11 µM [falling, single point]
AC50 [1]: 2.59 µM [rising, single point]

O=C(N/N=C/c1ccc(OC(=O)c2cccc(F)c2)cc1)c1cccnc1
cell number change: 1.26%
AC50 [1]: 6.51 µM [rising, single point]

CCOC(=O)C1CCN(C(=O)Nc2ccc(Cl)cc2Cl)CC1
cell number change: -24.2%
AC50 [1]: 23.1 µM [rising, partial curve]

O=C(CCC1N=C2c3ccccc3N=C(SCc3ccccc3Cl)N2C1=O)NCc1ccco1 (stereo not given)
AC50 [2]: 2.06 µM [rising, single point]
AC50 [1]: 0.259 µM [rising, partial curve, poor fit]

Cc1ccc(C2(C)NC(=O)N(CC(=O)Nc3ccccc3C(=O)NC3CCCC3)C2=O)cc1 (stereo not given)
cell number change: 12.8%
AC50 [1]: 0.82 µM [falling, single point]

COc1cc(CN2CCCCCC2)cc([N+](=O)[O-])c1O
cell number change: 6.2%
AC50 [1]: 29.1 µM [rising, single point]

Cc1scc(C(=O)NNC(=S)NCC(C)C)c1C
cell number change: 19.5%
AC50 [1]: 5.8 µM [rising, partial curve]

Cc1ccccc1-c1nc(CS(=O)(=O)CC(=O)N2CCN(C)CC2)c(C)o1
cell number change: 32.4%
AC50 [2]: 29.1 µM [rising, single point]
AC50 [1]: 23.1 µM [rising, single point]

CCN(CC)c1ccc(NC(=O)CN2CCN(c3ccc(F)cc3)CC2)cc1
cell number change: 4.51%

CC1CCCC(NC(=O)CCCn2c(=O)[nH]c3cc(Cl)ccc3c2=O)C1C (stereo not given)
cell number change: -35%
AC50 [2]: 29.1 µM [falling, single point]
AC50 [1]: 1.3 µM [falling, full curve]

COc1ccc(CNC(=O)CN(C(=O)CCC(=O)Nc2nccs2)c2cccc(C)c2)cc1
cell number change: 148%
AC50 [2]: 25.9 µM [rising, single point]
AC50 [1]: 3.66 µM [rising, partial curve, poor fit]

O=C(Nc1ccc(Sc2ccc(Br)cc2)cc1)c1ccco1
cell number change: -11.1%
AC50 [2]: 6.51 µM [falling, single point]
AC50 [1]: 6.51 µM [falling, single point]

O=C(CCl)N(c1ccccc1)C1CCS(=O)(=O)C1 (stereo not given)
cell number change: -21.1%
AC50 [1]: 20.6 µM [falling, single point]

CN(C(=O)COC(=O)c1nc(Cl)ccc1Cl)C1CCS(=O)(=O)C1 (stereo not given)
cell number change: 7.32%

COc1ccc(C2C=C(c3ccc(Br)s3)Nc3ncnn32)cc1OC (stereo not given)
AC50 [2]: 2.91 µM [rising, partial curve]
AC50 [1]: 0.231 µM [rising, full curve]

O=C1NN(c2ccccc2)C(=O)/C1=C\c1ccc2c(c1)OCO2
cell number change: 2.65%
AC50 [1]: 2.91 µM [rising, single point]

COc1ccc(S(=O)(=O)NCCOc2ccccc2)cc1F
cell number change: 30%
AC50 [1]: 6.51 µM [rising, full curve]
